Results: paper doi:10.1101/2022.11.28.518246

Biological target: T1, HA-tagged iR2-1-374 (human) (UniProt Q6PJF5)
T1 sequence: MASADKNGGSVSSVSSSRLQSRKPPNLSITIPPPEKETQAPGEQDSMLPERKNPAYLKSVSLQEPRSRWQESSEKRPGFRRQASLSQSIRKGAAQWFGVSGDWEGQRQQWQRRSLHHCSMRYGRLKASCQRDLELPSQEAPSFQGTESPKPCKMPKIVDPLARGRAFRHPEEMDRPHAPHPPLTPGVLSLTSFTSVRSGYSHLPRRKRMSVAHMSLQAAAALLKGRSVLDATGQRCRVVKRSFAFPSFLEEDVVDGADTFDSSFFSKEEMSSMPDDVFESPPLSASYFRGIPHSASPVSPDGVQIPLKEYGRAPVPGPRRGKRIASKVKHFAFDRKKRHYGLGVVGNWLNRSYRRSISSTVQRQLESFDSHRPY
Experiment: co-IP

binding: binds
Substance: transcription factor IID (human (endogenous in HEK293T))

No constants are given. Whether binding was seen depends on the method and setting. In cells and extracts the contact can be indirect. Binding can be weak; no strength is given. Where a sequence is shown, tags or fusion partners need not be part of it.
